From PubChem BioAssay (NCATS) come the findings set out here.

Some of the results follow. Shown are side measurements of this screen, not its main read-out; they come without a call. Compounds called inactive in the main read-out are mostly missing here. Potencies come from curve fits of mixed quality, noted in brackets.

The AC50 is the midpoint of the concentration-response curve, whichever way the signal moves. A high value points to weaker potency.

This experiment can be described thus: NCATS anti-infectives library activity on the primary C. elegans qHTS viability assay (AID 1745855). As to conditions: C. elegans worm area imaging. A digest of the protocol: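 Viability is taken from GFP fluorescence of PE254-GFP-FLuc C. elegans imaged by laser cytometry over 7 days. Ten L1 worms per well grow at 21 °C on TOP10 E. coli capsules with titrated compound; levamisole marks toxicity.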
Background: Quantitative high-throughput screening tests each substance at several concentrations.

Setting [1] is: day 7, measured here: worm number.
The mark [2] stands for this setting: day 7, measured here: worm area, day 3.
The mark [3] stands for this setting: day 7, measured here: worm number, day 3.

Take `N#CC(=C(/N)Sc1ccccc1N)/C(C#N)=C(\N)Sc1ccccc1N`: under setting [1], the AC50 is 3.25 µM [falling, full curve, poor fit].

With `CC(C)CN(C[C@@H](OP(=O)(O)O)[C@H](Cc1ccccc1)NC(=O)O[C@@H]1CCOC1)S(=O)(=O)c1ccc(N)cc1`, the AC50 under setting [1] was 0.29 µM [falling, partial curve, poor fit].

`CCN[C@H]1CN(CCCOC)S(=O)(=O)c2sc(S(N)(=O)=O)cc21`: under setting [2], the AC50 was 0.515 µM [falling, full curve, poor fit].

Turning to `CC12CCC(CC1=O)C2(C)C` (stereo unspecified), under setting [3], the AC50 was 20.5 µM [falling, single point].

On to `O=c1cc(CO)occ1O`, for which the AC50 under setting [3] is 0.0891 µM [falling, full curve, poor fit].

Turning to `CCO[C@@H]1OC(=O)C[C@@H]1NC(=O)[C@@H]1CCCN1C(=O)[C@@H](NC(=O)c1ccc(N)c(Cl)c1)C(C)(C)C`, under setting [3], the AC50 was 5.15 µM [rising, partial curve, poor fit].

For the molecule `COc1ccc(C(=O)C2CCN(CC(=O)N(Cc3nc4c(c(=O)[nH]3)COCC4)CC3CC3)CC2)cc1`, under setting [3], the AC50 is 7.27 µM [falling, partial curve, poor fit].

As for `COC(=O)[C@H](CCSC)NC(=O)c1ccc(NC[C@@H](N)CS)cc1-c1ccccc1`, the AC50 under setting [3] was 2.9 µM [rising, full curve, poor fit].

Turning to `Cc1cc(C)cc(C(=O)NOCCCCCC(=O)NO)c1`, the AC50 under setting [2] is 0.0727 µM [falling, full curve, poor fit].

`CC(C)=C1C/C=C(\C)CC/C=C(\C)CC1=O`: under setting [2], the AC50 is 25.8 µM [falling, single point].

As for `O=C(NCC1(c2nc(-c3ccccc3)cs2)CCOCC1)c1cccc(-c2noc(C(F)(F)F)n2)c1`, the AC50 under setting [3] is 14.5 µM [falling, partial curve, poor fit].

For the molecule `CCCCc1ccc(O)cc1O`, the AC50 under setting [3] is 1.03 µM [falling, full curve, poor fit].

As for `CC(C(=O)O)c1ccc(C(=O)c2cccs2)cc1` (stereo unspecified), the AC50 under setting [2] was 0.708 µM [rising, partial curve, poor fit].

For the molecule `O=C(O)c1ccccn1`, the half-maximal activity concentration (AC50) under setting [2] was 3.25 µM [rising, partial curve, poor fit].

In the case of `CC(=O)OC(C)(C)CCC(=O)[C@](C)(O)C1[C@H](O)C[C@@]2(C)C3CC=C4C(C[C@H](O)[C@@H](O)C4(C)C)[C@]3(C)C(=O)C[C@]12C` (stereo partly specified), under setting [3], the AC50 was 0.258 µM [falling, partial curve, poor fit].

Take `COC(=O)c1cc(OC)c2c(c1-c1c(CO)cc(OC)c3c1OCO3)OCO2`: the AC50 under setting [1] is 23 µM [falling, partial curve, poor fit].
